Results: patent publication US11066379B2 (THE TEXAS A&M UNIVERSITY SYSTEM, priority 2018, dated 2021)
Some results were stated once for a whole list of compounds, not compound by compound. For at least one compound, name, drawing or mass did not settle the structure.

Chains of the proteins cited; added tags and fusions are not shown.
UniProt P62937, whole entry: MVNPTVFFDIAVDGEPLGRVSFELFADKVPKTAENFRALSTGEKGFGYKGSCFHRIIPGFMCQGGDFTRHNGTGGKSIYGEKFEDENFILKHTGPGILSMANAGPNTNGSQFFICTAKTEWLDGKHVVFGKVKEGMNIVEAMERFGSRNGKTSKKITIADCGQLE

Biological target: T1, active human CypA protein (Homo sapiens, UniProt P62937)
T1 construct: Active human CypA full-length protein was from Abcam; purchased Abcam
Experiment: Binding to immobilized CypA by surface plasmon resonance (SPR)
Procedure: Sensor surface activation and ligand immobilization were performed by using HBS-EP as running buffer at a flow rate of 5 μL/min and 25° C. CM5 sensor chips were used as surface where Cyp A or D was immobilized as ligand. The CM5 chip is a glass slide coated with a thin layer of gold with a matrix of carboxymethylated dextran covalently attached. The CM5 chip was activated using an amine coupling kit. […] After activation, the ligand, 100 μg/mL of active human CypA protein dissolved in sodium acetate 10 mM at pH 4.5 was added to be immobilized over a CM5 sensor chip. Finally ethanolamine-HCl was injected to deactivate the remaining active esters and to avoid non-specific binding. […] Once analytes were tested and interaction was observed, individual binding curves were analyzed by determining the kinetic constants of analytes-CypA binding, namely, the observed rate constant (Kobs), the association rate constant (Kass), the dissociation rate constant (Kdiss), and the kinetic equilibrium dissociation constant (KD). At equilibrium, by definition, […]. The pseudo-first order association rate constants Kobs (s^-1) were determined for each compound concentration by using the 1:1 Langmuir association model of BiaEvaluation software (BiaCore, Uppsala, Sweden). […] The association phase was used to quantify the compound-CypA or D interactions. […]

C/C=C1\C([C@@]2(C)CCCC(C)(C)C2)=CC[C@H]2[C@H](OC(C)=O)O[C@H](OC(C)=O)[C@@H]12 [gracilin A, reference compound]
Kd: 2.8 to 6.8 µM
